## Results of single-concentration screens

Amino acid sequences for entries named in this document (tags omitted). Residues count along the entry.
UniProt P9WNZ1, whole entry: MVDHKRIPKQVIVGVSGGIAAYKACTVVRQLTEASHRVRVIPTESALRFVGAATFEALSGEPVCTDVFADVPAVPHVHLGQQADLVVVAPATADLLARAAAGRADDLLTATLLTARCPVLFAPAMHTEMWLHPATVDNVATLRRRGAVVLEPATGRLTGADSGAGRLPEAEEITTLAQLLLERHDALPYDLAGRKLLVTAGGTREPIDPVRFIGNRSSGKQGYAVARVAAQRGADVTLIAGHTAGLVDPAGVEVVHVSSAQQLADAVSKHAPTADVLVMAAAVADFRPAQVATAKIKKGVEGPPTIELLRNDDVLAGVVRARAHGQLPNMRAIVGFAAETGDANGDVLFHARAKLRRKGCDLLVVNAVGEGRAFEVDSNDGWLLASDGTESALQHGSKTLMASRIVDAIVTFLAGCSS
UniProt Q8IDJ8, 1-583: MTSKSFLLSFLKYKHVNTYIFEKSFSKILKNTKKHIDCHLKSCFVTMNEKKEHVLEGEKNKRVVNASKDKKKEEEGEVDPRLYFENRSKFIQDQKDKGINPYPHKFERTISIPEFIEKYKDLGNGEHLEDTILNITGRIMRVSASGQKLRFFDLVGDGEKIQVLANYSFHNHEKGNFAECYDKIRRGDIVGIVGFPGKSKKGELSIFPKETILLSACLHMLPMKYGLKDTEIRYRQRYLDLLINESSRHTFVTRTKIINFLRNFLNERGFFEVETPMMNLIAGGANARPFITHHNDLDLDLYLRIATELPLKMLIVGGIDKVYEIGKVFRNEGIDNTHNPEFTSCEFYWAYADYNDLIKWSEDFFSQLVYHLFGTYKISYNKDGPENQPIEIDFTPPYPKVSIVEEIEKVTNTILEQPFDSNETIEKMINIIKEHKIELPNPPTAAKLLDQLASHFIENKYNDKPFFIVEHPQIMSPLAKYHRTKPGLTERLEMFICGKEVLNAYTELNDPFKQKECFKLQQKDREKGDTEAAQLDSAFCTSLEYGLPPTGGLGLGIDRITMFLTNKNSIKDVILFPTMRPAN
UniProt A4I591, 1-473: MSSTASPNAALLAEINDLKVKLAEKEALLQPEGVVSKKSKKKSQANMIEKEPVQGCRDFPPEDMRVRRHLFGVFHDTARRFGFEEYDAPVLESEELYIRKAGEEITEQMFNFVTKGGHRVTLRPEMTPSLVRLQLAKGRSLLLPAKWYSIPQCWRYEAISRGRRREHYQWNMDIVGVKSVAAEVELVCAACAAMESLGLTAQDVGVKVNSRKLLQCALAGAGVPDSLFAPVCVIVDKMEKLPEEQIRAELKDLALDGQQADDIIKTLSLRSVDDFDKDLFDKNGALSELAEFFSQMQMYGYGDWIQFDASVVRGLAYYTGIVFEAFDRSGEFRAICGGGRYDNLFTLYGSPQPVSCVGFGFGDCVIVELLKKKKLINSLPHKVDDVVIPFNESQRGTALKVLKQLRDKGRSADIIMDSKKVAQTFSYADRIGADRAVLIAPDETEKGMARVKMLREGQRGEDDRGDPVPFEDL

From ChEMBL document CHEMBL3988442, “University of Dundee, Small-Polar-MMV Screening Library” (2021).

CoaBC: 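Enzyme assay of CoaBC with a phosphate dye (Biomol Green) read at 650 nm. Target: Coenzyme A biosynthesis protein CoaBC, Mycobacterium tuberculosis (UniProt P9WNZ1). Tested at 30 µM. Direction is inferred from only a few compounds that gave an IC50; most scored high, so higher reads as stronger inhibition. Most strong results did not repeat in a second test. About 67,000 compounds were tested under these conditions; 0.06% (about 40) showed 50% or more at least once.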
PfKRS1: 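Enzyme assay of the cytosolic lysyl-tRNA synthetase in 384-well plates, read by luminescence. Target: Lysine-tRNA ligase, Plasmodium falciparum 3D7 (UniProt Q8IDJ8). Concentration: 30 µM. Higher reads as stronger inhibition, judged from the few compounds that gave an IC50. About 69,000 compounds were tested under these conditions; 0.071% (about 49) showed 50% or more at least once.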
LiHisRS: 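Histidine-tRNA ligase, Leishmania infantum (UniProt A4I591). Enzyme assay of histidyl-tRNA synthetase; the read-out is not stated. Tested at 30 µM. Higher reads as stronger inhibition (inferred: compounds with an IC50 in retests scored well above the rest). The assay is labelled LdHisRS but filed under L. infantum. Size under these conditions: about 69,000 compounds, about 410 of them at 50% or above in at least one test.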

Each number is a percent effect as filed.
The controls that fix the scale are not given in the record; negative values are as filed.
This is an unselected part of the compounds tested.
A dash means the value is not listed here; it may have been measured.

| # | structure | CoaBC | PfKRS1 | LiHisRS |
|---|---|---|---|---|
| 1 | `CCN1C(=O)[C@H]2CN(Cc3cccnc3)C[C@H]2C12CCN(C(C)=O)CC2` | 4.58 | 3.166 | 7.767 |
| 2 | `O=C(c1nn(-c2ccccc2F)cc1O)N1CCC2(CC1)OCCO2` | 1.276 | -1.687 | -5.455 |
| 3 | `Cc1nc(C)n(CC2CCCN2CCOc2ccccc2F)n1` (configuration not stated) | 4.724 | 1.723 | 16.95 |
| 4 | `CN(C)c1cc(C(=O)N2CCCC2c2cnn(C)c2)ccn1` (configuration not stated) | -3.193 | -0.9387 | 9.821 |
| 5 | `Cn1c(C(=O)NC2CCCC2)nc2c1CCN(Cc1ccccc1)C2` | -1.833 | 3.719 | 2.632 |
| 6 | `c1ccc(-c2nnc(C3CCCN(CC4CCCCC4)C3)o2)nc1` (configuration not stated) | 2.602 | 1.742 | 4 |
| 7 | `CC(C)[C@H]1CN(C2Cc3ccccc3C2)C[C@@H]1NS(=O)(=O)N(C)C` | -7.559 | 3.806 | 8.571 |
| 8 | `O=C(NCCCn1nc2ccccn2c1=O)NCC(C1CC1)C1CC1` | 5.696 | 5.425 | 15.66 |
| 9 | `CC(C)c1noc(C(C)S(=O)(=O)Cc2nc(C3CC3)no2)n1` (configuration not stated) | 5.462 | 1.214 | 12.82 |
| 10 | `CCOc1cccc2c1OCC(C(=O)NS(=O)(=O)c1ccc(Cl)cc1)=C2` | -7.948 | 3.588 | 0 |
| 11 | `Cn1nnnc1SCCNC1CCN(c2ccc3c(c2)OCO3)CC1` | -3.194 | -0.7677 | 15.08 |
| 12 | `Cc1n[nH]cc1CNc1ccc2c(c1)N(C(=O)OC(C)(C)C)CCC2` | 5.455 | 5.275 | 0.9434 |
| 13 | `CS(=O)(=O)CCSc1nnc(Cc2ccccc2F)o1` | -4.713 | 2.714 | 18.57 |
| 14 | `COc1c(C(=O)NCc2cccnc2)nnn1Cc1ccccc1` | -4.619 | 1.737 | 10.34 |
| 15 | `CN(C)C(=O)c1ccc2c(c1)nc(N1CC[C@H](O)C1)n2C` | 1.384 | 3.164 | 15.93 |
| 16 | `COc1ccc(CN2C[C@@H](OCc3csc(C)n3)[C@H]3COC[C@H]32)cc1` | 3.656 | -2.413 | -13.33 |
| 17 | `CCc1ncnc(N(C)CC2CCCCO2)c1F` (configuration not stated) | 3.512 | 0.172 | 5.479 |
| 18 | `Cc1cccc2c1NC1(CCCC1)NC2=O` | -0.5051 | 9.747 | 21.05 |
| 19 | `O=C1COc2cc(C(=O)NS(=O)(=O)c3ccc(F)c(F)c3)ccc2N1` | -0.9126 | -2.738 | 7.895 |
| 20 | `CSc1c[nH]nc1NS(=O)(=O)c1ccc(C)c(C)c1` | -0.4016 | 1.3 | 1.493 |
| 21 | `O=C(NC[C@H]1CC[C@H](c2ccnc3ncnn32)CC1)C1CC1` | -9.026 | 0.8572 | 1.408 |
| 22 | `CCCc1n[nH]c(C2CN(C(=O)c3ccc(C)[nH]c3=O)CCO2)n1` (configuration not stated) | -0.894 | -0.06078 | -2.679 |
| 23 | `CCOC1CCN(C(=O)c2ccc(-c3cccc(C)c3)[nH]c2=O)CC1` | -8.594 | 0.74 | 14.61 |
| 24 | `CC(C)c1ccc(O)c(C(=O)NCc2cc[nH]n2)c1` | -1.576 | -2.359 | 1.613 |
| 25 | `Cc1cc(NC(=O)N(C)C2CCCN(c3ccccc3)C2=O)n(C)n1` (configuration not stated) | 11.78 | 1.036 | 15.52 |
| 26 | `COc1ccc(-n2ncc(C(C)NC3Cc4ccccc4C3)c2C)cc1` (configuration not stated) | -9.091 | -0.5785 | 13.7 |
| 27 | `CC(C)Oc1cccc(C(=O)C2CCCN(C(=O)c3ncn[nH]3)C2)c1` (configuration not stated) | -11.73 | 1.411 | 30.77 |
| 28 | `CCn1cc2c(n1)C(COCC1CC1)CN(C(=O)c1ccsc1)C2` (configuration not stated) | - | 13.77 | 15.52 |
| 29 | `CN(C)C(=O)N1CCCC(C(=O)N(C)CCCc2cnn(C)c2)C1` (configuration not stated) | 3.431 | 6.121 | 11.11 |
| 30 | `CCc1nnc(CN2CCN(C(=O)c3ccccn3)CC2)o1` | 5.897 | 4.421 | 8 |
| 31 | `Cc1cccc(CN2C(=O)CC[C@@H]3[C@H]2CCN3Cc2cccnc2)n1` | 1.777 | -0.7895 | 29.41 |
| 32 | `COCCN1CCC2(CCN(C(=O)c3ccc(F)cc3)CC2)C1=O` | 4 | -0.5714 | 8.257 |
| 33 | `CCc1nc(N)nc(NCc2cnn3cccnc23)c1C` | 4.119 | 4.061 | 9.859 |
| 34 | `Cn1cccc1C(=O)N1CCC2(CC1)COC(COc1ccccn1)C2` (configuration not stated) | 3.361 | 2.204 | 18.18 |
| 35 | `Cc1ccc(-c2ccnc3cc(CC(=O)N4CCN(C)CC4)nn23)cc1` | 5.904 | 5.59 | 14.29 |
| 36 | `COc1ccc(F)cc1C(C)NC(=O)Nc1nncs1` (configuration not stated) | 7.296 | 0.9455 | 14.75 |
| 37 | `CN(CC(=O)NS(=O)(=O)c1cccs1)Cc1ccccc1` | -0.9494 | -0.5987 | -6.494 |
| 38 | `Cc1nn(CC(C)C)c(N(C)C)c1CNCc1ccc(CO)c(F)c1` | 13.6 | -0.7558 | 16.07 |
| 39 | `CC(NC(=O)NCCCN(C(C)C)S(C)(=O)=O)c1ccncc1` (configuration not stated) | 1.399 | 1.177 | 9.565 |
| 40 | `CCCC(=O)NC1CCCN(c2cncc(Br)c2)C1` (configuration not stated) | 3.163 | -2.574 | 20 |
| 41 | `CCN(Cc1nc(COC)no1)C(=O)CCNC(=O)c1ccccc1F` | 2.97 | 2.036 | 14 |
| 42 | `O=C(NCCS(=O)(=O)N1CCc2ccccc21)c1c(O)cc(F)cc1F` | 4.615 | 6.998 | 5.333 |
| 43 | `O=C(CNC1CCc2ncnn2C1)N(Cc1cccs1)C1CC1` (configuration not stated) | 2.848 | 3.653 | -1.299 |